Measurements taken from PubChem BioAssay AID624297 (National Center for Advancing Translational Sciences (NCATS), 2012).
The campaign covered roughly 340,000 compounds. About 6,200 (1.8%) were called active. Inconclusive results, whose numbers are uncertain, are shown with a selection of clear calls. The call rests on the fitted dose curve; in most records, active means well fitted activation curve with a large enough effect; inconclusive means small, poorly fitted or top-dose-only effect; inactive means no such curve, though single readings can be large or run the other way. Potencies beside an inconclusive call are fits to weak or partial responses and may not hold up.

assay: A quantitative high throughput screen for small molecules that induce DNA re-replication in SW480 colon adenocarcinoma cells.; further: nearly all actives have a fitted effect of over 55% in size; on re-replication activation: % of control where 0% means no effect; conditions: Hoechst DNA content imaging, 48 h; re-replication activation: at 46.1 µM (top of the series) unless noted
Summary of the method: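 First, 250 cells per well were seeded. Next, compound or vehicle (23 nL) was pinned in, plates sat 48 hr at 37 C. Finally Hoechst was added for 40 min before fluorescence scanning.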
Potency means the concentration at half of the fitted maximal effect.

| Structure (SMILES) | Potency | re-replication activation |
| --- | --- | --- |
| COc1nc(N2CCOCC2)nc(-n2cccc2)n1 | inconclusive: 20.6 µM [activator, partial curve, poor fit] |  |
| COc1cccc(C(=O)NNC(=O)c2ccc3ccccc3c2O)c1 | inconclusive: 20.6 µM [activator, single point] |  |
| CCOC(=O)C1(CCOC)CCN(Cc2nc(-c3cccs3)oc2C)CC1 | inconclusive: 0.731 µM [activator, full curve, poor fit] |  |
| CSc1ccc(C2c3[nH]c4ccccc4c3CCN2C(=O)c2ccnn2C)cc1 (stereo unspecified) | inconclusive: 18.4 µM [activator, single point] |  |
| C/C(=N\NC(=O)CSc1nc2ccccc2s1)c1cccnc1 |  | inactive: -1.34% |
| COc1ccc(NC(=O)c2c(C)noc2C(C)C)cc1S(=O)(=O)N1CCCCC1 |  | inactive: 2.34% |
| O=C(CSc1nc2ccccc2c(=O)[nH]1)Nc1ccc([N+](=O)[O-])cc1 | inconclusive: 18.4 µM [activator, partial curve, poor fit] |  |
| CC1CN(c2ccc([N+](=O)[O-])c(NCCOc3ccccc3)c2)CC(C)N1 (stereo unspecified) |  | inactive: 1.65% |
| O=c1c2[nH]c3ccccc3c2ncn1CCC1=CCCCC1 |  | inactive: 0.145% |
| COc1ccc(-c2ccc(SCc3ccccn3)nn2)cc1OC |  | inactive: -60.4% |
| C=CCN(c1ccc(F)cc1)S(=O)(=O)c1cc(C(=O)NC2CCC(O)CC2)ccc1Cl (stereo unspecified) | inconclusive: 7.31 µM [activator, partial curve, poor fit] |  |
| Cc1ccc(OCC(=O)N/N=C/c2cccc3cccnc23)cc1 | inconclusive: 2.59 µM [activator, partial curve] |  |
| Cc1cccc(C(=O)Nc2ccc(C(=O)N3CCCCC3C)cc2)c1 (stereo unspecified) |  | inactive: 1.44% |
| Cc1oc(-c2ccc(Cl)cc2)nc1CSCC(=O)NC1CCN(Cc2ccccc2)CC1 |  | inactive: 12.2% |
| Cc1ccc(NC(=O)COC(=O)C2CC2)cc1S(=O)(=O)N1CCOCC1 |  | inactive: -7.93% |
| O=C(Nc1ccc2c(c1)CCCN2C(=O)c1cccs1)c1cccc(F)c1 |  | inactive: -9.56% |
| O=C(NCc1ccc(N2CCCC2=O)cc1)c1cc(COc2c(F)cccc2F)on1 |  | inactive: -5.15% |
| O=C(/C=C\c1ccco1)NC(=S)Nc1ccccc1O | inconclusive: 20.6 µM [activator, partial curve, poor fit] |  |
| O=C(Cc1cccs1)Nc1ccc(-c2nnc(-c3ccccc3)o2)cc1 |  | inactive: -3.05% |
| O=[N+]([O-])c1ccc(N(CC2CO2)S(=O)(=O)c2ccccc2)cc1 (stereo unspecified) |  | inactive: -6.22% |
| Cc1cc(NC(=O)OC2CCCCC2)ccc1[N+](=O)[O-] |  | inactive: 7.54% |
| Cc1cc(-c2nc(-c3ccc(C(C)(C)C)cc3)no2)no1 | inconclusive: 16.4 µM [activator, partial curve, poor fit] |  |
| CCCCn1c(=N)n(CC(=O)c2ccco2)c2ccccc21 |  | inactive: 1.53% |

A few values from the entries so far:
`Cc1ccc(OCC(=O)N/N=C/c2cccc3cccnc23)cc1` | Potency: inconclusive: 2.59 µM [activator, partial curve]
`Cc1cccc(C(=O)Nc2ccc(C(=O)N3CCCCC3C)cc2)c1` (stereo unspecified) | re-replication activation: inactive: 1.44%

(next part)

| Structure (SMILES) | Potency | re-replication activation |
| --- | --- | --- |
| O=C(CCl)N1N=C(c2ccco2)CC1c1cccs1 (stereo unspecified) | active: 3.26 µM |  |
| CN(C)CCNC(=O)/C(=C/c1ccc(-c2ccc(Cl)cc2)o1)NC(=O)c1ccccc1 | inconclusive: 25.9 µM [activator, partial curve, poor fit] |  |
| COc1ccc(-c2cc(CCCC(=O)NCCc3cc(OC)ccc3OC)no2)cc1 |  | inactive: 1.02% |
| Cc1ccc(NC(=O)CSc2nc3ccccc3c(=O)n2CCCC(=O)N2CCCC2)cc1 | inconclusive: 9.2 µM [activator, partial curve] |  |
| CCOC(=O)C1(Cc2ccccc2Cl)CCN(Cc2csc(C(C)=O)c2)CC1 |  | inactive: 1.59% |
| C/C(=N\NC(=S)NCc1ccccc1)c1ccc2ccccc2c1 | inconclusive: 25.9 µM [activator, partial curve, poor fit] |  |
| O=C(/C=C/c1ccc([N+](=O)[O-])cc1)c1ccccc(=O)c1O | active: 5.8 µM |  |
| COC(=O)c1ccc(NC(=O)CSC2=NCCN2)cc1 | inconclusive: 29.1 µM [activator, single point] |  |
| Nc1c(N(CCC2=CCCCC2)C(=O)c2ccc([N+](=O)[O-])o2)c(=O)[nH]c(=O)n1Cc1ccccc1 | inconclusive: 20.6 µM [activator, single point] |  |
| CCN1CCN(c2ccc(S(=O)(=O)N3CCCCC3)cc2NC(=O)COc2ccc(Cl)cc2)CC1 | inconclusive: 0.13 µM [activator, full curve, poor fit] |  |
| CCOc1ccccc1NC(=O)c1nc(S(=O)(=O)Cc2cccc(C)c2)ncc1Cl | active: 3.26 µM |  |
| Cc1nn(-c2ccccc2)c2sc(C(=O)NNC(=O)COc3cccc4ccccc34)cc12 | inconclusive: 29.1 µM [activator, single point] |  |
| COc1ccc(-c2cccc(CCC(=O)N3CCN(c4cc(C)ccc4C)CC3)c2)cc1 | inconclusive: 29.1 µM [activator, partial curve, poor fit] |  |
| Cc1cc(C)c2ccc3c(C)c(C)nc3c2[nH]1 | inconclusive: 18.4 µM [activator, single point] |  |
| OC(COCc1ccc2c(c1)OCO2)CN1CCC(Cc2ccccc2)CC1 (stereo unspecified) |  | inactive: -1.84% |
| Cc1cccc(NS(=O)(=O)c2ccc(-c3cnc(C4CC4)o3)cc2)c1C | inconclusive: 0.366 µM [activator, full curve, poor fit] |  |
| Cc1ccc(-c2cc(C(=O)NCc3ccccn3)no2)cc1 | inconclusive: 29.1 µM [activator, single point] |  |
| CC(C)c1cc(C(=O)O)c2cnn(C(C)C)c2n1 | inconclusive: 20.6 µM [activator, single point] |  |
| CCn1c(SCc2c(F)cccc2Cl)nnc1-c1ccco1 |  | inactive: -5.35% |
| CCN(CC)S(=O)(=O)c1cccc(NC2=NCC(C)S2)c1 (stereo unspecified) | inconclusive: 0.259 µM [activator, single point] |  |
| Cc1[nH]c2ccccc2c1C1(O)C(=O)N(Cc2ccc3c(c2)OCO3)c2ccccc21 (stereo unspecified) | inconclusive: 20.6 µM [activator, single point] |  |
| CC(=O)c1ccc(NC(=O)c2cccc(NC(=O)c3ccccc3)c2)cc1 | inconclusive: 0.651 µM [activator, partial curve, poor fit] |  |
| CN(C(=O)c1cccc(NC(=O)Cc2ccc(NC(=O)C3CCN(S(=O)(=O)c4cccc([N+](=O)[O-])c4)CC3)cc2)c1)C1CCCC1 | inconclusive: 16.4 µM [activator, single point] |  |
